Article PMC4776112
No constants are given. Whether binding was seen depends on the method and setting. Binding seen in cells or lysates may run through a third protein. Some binding calls cover weakened binding; strength is not graded here.

The chains behind the UniProt entries cited, without tags or fusion partners.
UniProt P63085: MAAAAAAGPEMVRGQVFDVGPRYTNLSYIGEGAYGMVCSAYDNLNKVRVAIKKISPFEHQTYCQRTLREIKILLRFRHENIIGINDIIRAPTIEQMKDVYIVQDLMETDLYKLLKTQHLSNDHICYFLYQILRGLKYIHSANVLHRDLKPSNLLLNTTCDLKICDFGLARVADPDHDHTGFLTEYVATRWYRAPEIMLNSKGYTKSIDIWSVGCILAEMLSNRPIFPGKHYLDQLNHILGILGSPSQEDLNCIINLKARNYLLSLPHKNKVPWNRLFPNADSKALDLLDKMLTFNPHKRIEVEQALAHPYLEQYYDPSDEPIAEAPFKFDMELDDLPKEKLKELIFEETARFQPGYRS
UniProt P62965: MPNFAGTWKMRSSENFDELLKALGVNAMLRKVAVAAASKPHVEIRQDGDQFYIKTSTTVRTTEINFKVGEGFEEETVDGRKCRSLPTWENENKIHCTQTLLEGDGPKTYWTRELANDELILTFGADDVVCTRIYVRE

Target: GST-ERK2 (recombinant, 14-198, Upstate) (UniProt P63085)
Assay: co-IP; Semi in vitro kinase assay: anti-flag precipitate of flag-Crabp1 from Cos-1 cells (treated with 100 nM atRA, compound 3, compound 4 or control for 30 min) incubated with 0.4 ug pure GST-ERK2 in 40 ul kinase buffer (20 mM MOPS pH 7.2, ATP, MgCl2) at 30 °C for 30 min; association seen by western blot (Fig. 2B, lower panel); only the target purified

binding: binds
Substance: flag-Crabp1 (cellular retinoic acid binding protein 1) (from UniProt P62965 1-137)
